Reference: the supplement of paper PMC12823440, “Inhibitors supercharge kinase turnover through native proteolytic circuits” (Nature, 2025)
This is one part of the list. Hit calls seldom repeat between salt and free forms of one compound.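 Kinases were expressed as nanoluciferase fusions in K562 cells and luminescence was read every 4 h between 2 and 18 h as percent of control, DMSO set to 100% and a positive control to 0%. A time point counts as decreased when the signal drops significantly (2 sigma). The hit call is the authors' own, does not follow from the count of time points alone, and its rule is not shown.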

Amino acid sequences for entries named in this document (tags omitted). A change or cut given only in a name is not applied to a line headed by its entry.
UniProt P31749: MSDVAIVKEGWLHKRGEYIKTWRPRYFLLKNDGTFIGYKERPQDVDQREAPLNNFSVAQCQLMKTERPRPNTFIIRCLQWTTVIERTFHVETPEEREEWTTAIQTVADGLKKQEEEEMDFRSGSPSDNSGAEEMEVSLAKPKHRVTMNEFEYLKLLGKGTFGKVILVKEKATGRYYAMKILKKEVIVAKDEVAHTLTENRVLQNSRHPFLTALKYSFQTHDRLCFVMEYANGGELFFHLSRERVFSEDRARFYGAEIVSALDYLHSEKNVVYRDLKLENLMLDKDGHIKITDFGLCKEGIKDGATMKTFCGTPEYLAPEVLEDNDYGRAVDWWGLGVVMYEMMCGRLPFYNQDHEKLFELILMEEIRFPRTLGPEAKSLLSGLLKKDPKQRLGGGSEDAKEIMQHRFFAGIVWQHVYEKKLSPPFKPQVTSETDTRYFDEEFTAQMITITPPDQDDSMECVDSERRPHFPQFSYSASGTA
UniProt Q9UM73: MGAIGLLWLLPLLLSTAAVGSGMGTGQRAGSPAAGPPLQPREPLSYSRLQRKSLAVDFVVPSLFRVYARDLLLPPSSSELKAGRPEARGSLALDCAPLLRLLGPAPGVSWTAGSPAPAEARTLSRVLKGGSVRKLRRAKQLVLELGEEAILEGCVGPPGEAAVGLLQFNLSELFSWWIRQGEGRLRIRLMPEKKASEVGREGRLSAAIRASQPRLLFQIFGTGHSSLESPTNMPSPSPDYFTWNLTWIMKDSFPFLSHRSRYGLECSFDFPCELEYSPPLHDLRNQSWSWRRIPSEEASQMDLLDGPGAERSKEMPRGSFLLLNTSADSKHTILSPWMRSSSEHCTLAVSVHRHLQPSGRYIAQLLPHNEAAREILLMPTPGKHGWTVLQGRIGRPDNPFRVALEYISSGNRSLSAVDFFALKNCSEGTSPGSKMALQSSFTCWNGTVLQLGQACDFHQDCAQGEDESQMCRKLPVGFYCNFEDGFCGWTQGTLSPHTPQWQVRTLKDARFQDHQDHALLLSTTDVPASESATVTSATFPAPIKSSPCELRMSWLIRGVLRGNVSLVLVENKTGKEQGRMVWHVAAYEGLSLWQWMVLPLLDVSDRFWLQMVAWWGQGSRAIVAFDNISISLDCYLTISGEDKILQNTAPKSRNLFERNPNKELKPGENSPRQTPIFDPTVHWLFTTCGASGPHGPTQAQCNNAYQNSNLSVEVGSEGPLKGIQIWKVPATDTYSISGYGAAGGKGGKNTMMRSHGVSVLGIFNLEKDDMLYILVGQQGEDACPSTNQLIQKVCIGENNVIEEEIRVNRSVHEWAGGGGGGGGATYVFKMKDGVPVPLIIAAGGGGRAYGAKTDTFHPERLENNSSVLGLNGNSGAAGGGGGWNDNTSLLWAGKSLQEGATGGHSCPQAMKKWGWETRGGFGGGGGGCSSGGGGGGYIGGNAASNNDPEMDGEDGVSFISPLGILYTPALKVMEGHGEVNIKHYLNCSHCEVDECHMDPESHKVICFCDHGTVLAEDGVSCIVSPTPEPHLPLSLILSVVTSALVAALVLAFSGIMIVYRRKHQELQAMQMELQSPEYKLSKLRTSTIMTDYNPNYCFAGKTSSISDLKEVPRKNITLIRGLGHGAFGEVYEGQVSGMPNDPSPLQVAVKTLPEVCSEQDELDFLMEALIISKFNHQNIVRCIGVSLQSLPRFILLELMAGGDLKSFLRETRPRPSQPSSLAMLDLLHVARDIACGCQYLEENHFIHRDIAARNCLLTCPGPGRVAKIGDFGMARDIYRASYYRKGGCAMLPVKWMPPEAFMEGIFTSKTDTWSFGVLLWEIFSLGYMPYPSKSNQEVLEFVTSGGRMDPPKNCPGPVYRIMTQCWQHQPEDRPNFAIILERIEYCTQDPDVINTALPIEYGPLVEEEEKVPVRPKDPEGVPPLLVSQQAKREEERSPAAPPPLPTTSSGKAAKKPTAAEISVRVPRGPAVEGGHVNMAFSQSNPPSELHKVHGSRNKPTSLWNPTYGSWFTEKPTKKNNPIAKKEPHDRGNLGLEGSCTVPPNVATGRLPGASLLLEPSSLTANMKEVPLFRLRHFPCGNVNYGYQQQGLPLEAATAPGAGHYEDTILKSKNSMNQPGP
UniProt P10398: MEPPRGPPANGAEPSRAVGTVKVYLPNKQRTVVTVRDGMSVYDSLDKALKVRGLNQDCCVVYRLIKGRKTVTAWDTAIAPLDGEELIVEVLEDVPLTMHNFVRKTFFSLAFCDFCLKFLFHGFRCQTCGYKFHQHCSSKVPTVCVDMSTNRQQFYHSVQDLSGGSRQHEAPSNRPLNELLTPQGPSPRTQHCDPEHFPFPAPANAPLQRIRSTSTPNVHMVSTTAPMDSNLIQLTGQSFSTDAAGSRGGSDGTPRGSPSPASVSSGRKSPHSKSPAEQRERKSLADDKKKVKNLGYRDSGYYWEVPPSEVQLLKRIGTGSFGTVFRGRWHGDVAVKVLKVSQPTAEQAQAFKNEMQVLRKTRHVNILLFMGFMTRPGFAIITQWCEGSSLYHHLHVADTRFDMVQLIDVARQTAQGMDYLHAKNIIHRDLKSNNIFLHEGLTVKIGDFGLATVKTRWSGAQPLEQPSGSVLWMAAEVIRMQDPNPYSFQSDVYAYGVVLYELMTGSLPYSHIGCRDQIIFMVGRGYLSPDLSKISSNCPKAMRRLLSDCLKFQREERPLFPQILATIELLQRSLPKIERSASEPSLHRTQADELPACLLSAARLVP
UniProt O14965: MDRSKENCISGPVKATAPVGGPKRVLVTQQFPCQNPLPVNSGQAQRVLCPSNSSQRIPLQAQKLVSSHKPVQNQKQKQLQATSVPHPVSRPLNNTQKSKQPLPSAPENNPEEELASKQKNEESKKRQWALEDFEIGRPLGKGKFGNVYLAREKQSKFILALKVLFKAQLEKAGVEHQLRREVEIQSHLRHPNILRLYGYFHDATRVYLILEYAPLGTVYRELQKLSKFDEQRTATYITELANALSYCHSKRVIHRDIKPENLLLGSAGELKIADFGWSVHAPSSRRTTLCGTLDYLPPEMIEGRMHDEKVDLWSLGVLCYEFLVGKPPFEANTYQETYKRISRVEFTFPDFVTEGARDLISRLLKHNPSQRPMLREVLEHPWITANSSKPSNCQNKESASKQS
UniProt Q9UQB9: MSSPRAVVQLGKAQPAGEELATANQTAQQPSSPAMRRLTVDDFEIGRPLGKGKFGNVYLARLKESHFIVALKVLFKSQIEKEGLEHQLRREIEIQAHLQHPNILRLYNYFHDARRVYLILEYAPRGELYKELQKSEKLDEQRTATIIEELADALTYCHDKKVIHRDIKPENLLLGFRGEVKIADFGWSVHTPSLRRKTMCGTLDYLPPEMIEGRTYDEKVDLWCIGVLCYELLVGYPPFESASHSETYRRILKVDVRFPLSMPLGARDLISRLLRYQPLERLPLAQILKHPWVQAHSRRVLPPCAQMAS
UniProt P51451: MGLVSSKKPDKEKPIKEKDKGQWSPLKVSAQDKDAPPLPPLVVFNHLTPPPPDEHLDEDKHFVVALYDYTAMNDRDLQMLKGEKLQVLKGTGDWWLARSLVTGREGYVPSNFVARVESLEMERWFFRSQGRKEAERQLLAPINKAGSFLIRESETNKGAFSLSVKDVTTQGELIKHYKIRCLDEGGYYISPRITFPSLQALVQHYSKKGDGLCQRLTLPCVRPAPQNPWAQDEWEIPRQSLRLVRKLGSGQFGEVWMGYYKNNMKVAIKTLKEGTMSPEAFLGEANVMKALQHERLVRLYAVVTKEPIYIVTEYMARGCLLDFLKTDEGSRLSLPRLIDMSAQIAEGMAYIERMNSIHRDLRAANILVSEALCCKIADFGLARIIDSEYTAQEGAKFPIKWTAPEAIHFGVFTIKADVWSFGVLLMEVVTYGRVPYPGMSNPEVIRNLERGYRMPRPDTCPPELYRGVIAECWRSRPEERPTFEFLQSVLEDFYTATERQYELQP
UniProt P51813: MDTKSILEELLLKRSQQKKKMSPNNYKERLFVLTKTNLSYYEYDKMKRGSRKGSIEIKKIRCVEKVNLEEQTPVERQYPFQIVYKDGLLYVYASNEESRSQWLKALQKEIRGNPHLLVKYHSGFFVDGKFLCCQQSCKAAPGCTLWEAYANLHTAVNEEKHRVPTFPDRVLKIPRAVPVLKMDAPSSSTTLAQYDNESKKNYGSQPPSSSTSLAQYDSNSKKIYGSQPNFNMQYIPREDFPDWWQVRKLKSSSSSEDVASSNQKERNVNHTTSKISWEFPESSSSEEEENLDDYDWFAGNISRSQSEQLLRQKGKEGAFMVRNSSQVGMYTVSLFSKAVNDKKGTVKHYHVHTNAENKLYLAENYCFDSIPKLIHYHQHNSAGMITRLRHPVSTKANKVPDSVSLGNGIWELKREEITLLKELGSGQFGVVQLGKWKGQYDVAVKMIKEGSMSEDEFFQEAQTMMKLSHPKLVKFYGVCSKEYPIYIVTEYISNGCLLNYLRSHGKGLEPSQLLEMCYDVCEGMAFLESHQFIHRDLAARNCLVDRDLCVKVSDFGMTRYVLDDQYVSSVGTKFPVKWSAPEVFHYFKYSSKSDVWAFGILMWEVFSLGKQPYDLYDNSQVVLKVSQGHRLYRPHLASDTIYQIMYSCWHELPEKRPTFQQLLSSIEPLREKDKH
UniProt P15056, whole entry, looked up: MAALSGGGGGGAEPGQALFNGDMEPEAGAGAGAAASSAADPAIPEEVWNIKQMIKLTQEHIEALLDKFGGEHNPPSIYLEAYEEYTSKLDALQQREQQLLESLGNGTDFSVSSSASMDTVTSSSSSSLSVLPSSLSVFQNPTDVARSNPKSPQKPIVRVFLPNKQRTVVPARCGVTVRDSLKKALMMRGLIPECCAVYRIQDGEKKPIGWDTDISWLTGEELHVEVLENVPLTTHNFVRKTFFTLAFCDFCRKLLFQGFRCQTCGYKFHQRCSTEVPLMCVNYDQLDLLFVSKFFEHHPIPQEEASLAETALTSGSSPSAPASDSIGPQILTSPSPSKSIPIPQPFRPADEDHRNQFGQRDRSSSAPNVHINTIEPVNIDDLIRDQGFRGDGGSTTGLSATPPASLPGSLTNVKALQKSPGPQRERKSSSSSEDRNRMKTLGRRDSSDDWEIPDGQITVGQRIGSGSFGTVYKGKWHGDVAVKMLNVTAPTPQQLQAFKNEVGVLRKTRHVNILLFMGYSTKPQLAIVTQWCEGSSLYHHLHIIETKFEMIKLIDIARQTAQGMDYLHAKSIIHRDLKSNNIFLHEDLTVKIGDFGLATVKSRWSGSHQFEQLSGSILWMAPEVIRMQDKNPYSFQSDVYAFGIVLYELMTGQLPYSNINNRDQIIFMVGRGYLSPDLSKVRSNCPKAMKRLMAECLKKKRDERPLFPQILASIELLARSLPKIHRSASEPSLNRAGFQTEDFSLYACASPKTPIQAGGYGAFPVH
UniProt Q06187: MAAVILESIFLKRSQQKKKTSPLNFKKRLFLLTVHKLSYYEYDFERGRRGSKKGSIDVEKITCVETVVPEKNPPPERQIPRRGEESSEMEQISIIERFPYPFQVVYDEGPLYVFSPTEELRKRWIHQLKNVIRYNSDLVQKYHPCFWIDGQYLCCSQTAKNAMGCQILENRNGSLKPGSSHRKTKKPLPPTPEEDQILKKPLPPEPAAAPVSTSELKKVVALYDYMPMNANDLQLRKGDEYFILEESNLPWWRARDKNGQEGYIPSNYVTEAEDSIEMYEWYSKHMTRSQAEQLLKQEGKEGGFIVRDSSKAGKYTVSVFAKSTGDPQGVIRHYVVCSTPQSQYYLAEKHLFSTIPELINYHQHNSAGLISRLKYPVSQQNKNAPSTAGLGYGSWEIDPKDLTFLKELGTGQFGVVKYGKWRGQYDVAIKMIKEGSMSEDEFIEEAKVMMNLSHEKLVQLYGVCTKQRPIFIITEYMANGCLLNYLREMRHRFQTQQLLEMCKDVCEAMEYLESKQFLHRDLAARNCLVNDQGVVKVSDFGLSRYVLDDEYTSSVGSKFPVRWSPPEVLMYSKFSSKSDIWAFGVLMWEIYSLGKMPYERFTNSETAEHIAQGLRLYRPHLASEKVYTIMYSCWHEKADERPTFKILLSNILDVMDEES
UniProt Q13555: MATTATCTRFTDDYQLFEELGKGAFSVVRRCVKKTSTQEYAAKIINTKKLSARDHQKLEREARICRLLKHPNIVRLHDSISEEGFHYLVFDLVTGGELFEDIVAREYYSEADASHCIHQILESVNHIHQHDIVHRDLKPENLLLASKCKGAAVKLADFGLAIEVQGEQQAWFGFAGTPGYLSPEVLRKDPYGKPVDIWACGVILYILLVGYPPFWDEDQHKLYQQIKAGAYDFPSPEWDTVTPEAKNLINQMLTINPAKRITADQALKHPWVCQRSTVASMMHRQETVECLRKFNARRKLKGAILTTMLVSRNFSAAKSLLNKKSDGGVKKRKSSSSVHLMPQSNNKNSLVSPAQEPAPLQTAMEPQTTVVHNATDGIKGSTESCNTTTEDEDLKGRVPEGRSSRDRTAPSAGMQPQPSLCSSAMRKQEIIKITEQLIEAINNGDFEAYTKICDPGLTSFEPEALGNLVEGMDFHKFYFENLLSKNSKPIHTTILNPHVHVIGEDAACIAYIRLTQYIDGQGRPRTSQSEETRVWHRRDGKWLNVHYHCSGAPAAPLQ

Columns and labels:
Assay in all cases: kinase-Nluc reporter destabilization hit call (1 = scored as downregulated) (binary); higher = compound decreases kinase abundance
Details in all cases: K562; 2-18 h
ABL1 = ABL1 (UniProt P00519)
AKT1 = AKT1 (UniProt P31749)
ALK = ALK (UniProt Q9UM73)
ARAF = ARAF (UniProt P10398)
AURKA = AURKA (UniProt O14965)
AURKB = AURKB (UniProt Q96GD4)
AURKC = AURKC (UniProt Q9UQB9)
BLK = BLK (UniProt P51451)
BMX = BMX (UniProt P51813)
BRAF = BRAF (UniProt P15056)
BRAF_V600E = tested on: BRAF_V600E
BTK = BTK (UniProt Q06187)
CAMK2A = CAMK2A (UniProt Q9UQM7)
CAMK2G = CAMK2G (UniProt Q13555)
CDK10 = CDK10 (UniProt Q15131)
CDK2 = CDK2 (UniProt P24941)
CDK3 = CDK3 (UniProt Q00526)
CDK4 = CDK4 (UniProt P11802)
CDK5 = CDK5 (UniProt Q00535)
CDK6 = CDK6 (UniProt Q00534)

Measured: kinase-Nluc reporter destabilization hit call

CN1CCC(Nc2ccc(C(=O)Nc3cc(-c4ccc5c(c4)OCO5)[nH]n3)cc2)CC1 (10 µM)
inactive: ABL1 = 0 | AKT1 = 0 | ALK 0 | ARAF 0 | AURKA 0 | AURKB 0 | AURKC 0 | BLK 0 | BMX 0 | BRAF 0 | BRAF_V600E 0 | BTK 0 | CAMK2A 0 | CAMK2G 0 | CDK10 = 0 | CDK2 = 0 | CDK3 = 0 | CDK4 = 0 | CDK5 = 0 | CDK6 = 0

CN1CCC(Nc2nc(Nc3ccc(Oc4ccccc4)cc3)c3c(=O)[nH]cc(Br)c3n2)CC1 (2.5 µM)
active: BMX 1
inactive: ABL1 = 0 | AKT1 = 0 | ALK 0 | ARAF 0 | AURKA 0 | AURKB 0 | AURKC 0 | BLK 0 | BRAF 0 | BRAF_V600E 0 | BTK 0 | CAMK2A 0 | CAMK2G 0 | CDK10 = 0 | CDK2 = 0 | CDK3 = 0 | CDK4 = 0 | CDK5 = 0 | CDK6 = 0

CC(C)(C)S(=O)(=O)c1cc2c(Nc3ccc4scnc4c3)ncnc2cc1OCCOP(=O)(O)O (2 µM)
inactive: ABL1 = 0 | AKT1 = 0 | ALK 0 | ARAF 0 | AURKA 0 | AURKB 0 | AURKC 0 | BLK 0 | BMX 0 | BRAF 0 | BRAF_V600E 0 | BTK 0 | CAMK2A 0 | CAMK2G 0 | CDK10 = 0 | CDK2 = 0 | CDK3 = 0 | CDK4 = 0 | CDK5 = 0 | CDK6 = 0

NC(=O)c1ccccc1Nc1ccnc(Nc2cccc(O)c2)n1 (10 µM)
active: ABL1 = 1
inactive: AKT1 = 0 | ALK 0 | ARAF 0 | AURKA 0 | AURKB 0 | AURKC 0 | BLK 0 | BMX 0 | BRAF 0 | BRAF_V600E 0 | BTK 0 | CAMK2A 0 | CAMK2G 0 | CDK10 = 0 | CDK2 = 0 | CDK3 = 0 | CDK4 = 0 | CDK5 = 0 | CDK6 = 0

CC(C)n1cnc2c(Nc3cccc(Cl)c3)nc(N[C@H]3CCCC[C@@H]3N)nc21 (2.5 µM)
inactive: ABL1 = 0 | AKT1 = 0 | ALK 0 | ARAF 0 | AURKA 0 | AURKB 0 | AURKC 0 | BLK 0 | BMX 0 | BRAF 0 | BRAF_V600E 0 | BTK 0 | CAMK2A 0 | CAMK2G 0 | CDK10 = 0 | CDK2 = 0 | CDK3 = 0 | CDK4 = 0 | CDK5 = 0 | CDK6 = 0

COc1cc2nc(NC3CC3)nc(NC3CCN(C(C)C)CC3)c2cc1OC (10 µM)
inactive: ABL1 = 0 | AKT1 = 0 | ALK 0 | ARAF 0 | AURKA 0 | AURKB 0 | AURKC 0 | BLK 0 | BMX 0 | BRAF 0 | BRAF_V600E 0 | BTK 0 | CAMK2A 0 | CAMK2G 0 | CDK10 = 0 | CDK2 = 0 | CDK3 = 0 | CDK4 = 0 | CDK5 = 0 | CDK6 = 0

As a short view, 2 of the compounds above:
CC(C)n1cnc2c(Nc3cccc(Cl)c3)nc(N[C@H]3CCCC[C@@H]3N)nc21 (2.5 µM)
inactive: ABL1 = 0 | AKT1 = 0 | ALK 0 | ARAF 0 | AURKA 0 | AURKB 0 | AURKC 0 | BLK 0 | BMX 0 | BRAF 0 | BRAF_V600E 0 | BTK 0 | CAMK2A 0 | CAMK2G 0 | CDK10 = 0 | CDK2 = 0 | CDK3 = 0 | CDK4 = 0 | CDK5 = 0 | CDK6 = 0

COc1cc2nc(NC3CC3)nc(NC3CCN(C(C)C)CC3)c2cc1OC (10 µM)
inactive: ABL1 = 0 | AKT1 = 0 | ALK 0 | ARAF 0 | AURKA 0 | AURKB 0 | AURKC 0 | BLK 0 | BMX 0 | BRAF 0 | BRAF_V600E 0 | BTK 0 | CAMK2A 0 | CAMK2G 0 | CDK10 = 0 | CDK2 = 0 | CDK3 = 0 | CDK4 = 0 | CDK5 = 0 | CDK6 = 0

(further entries)

CCCS(=O)(=O)N[C@H]1C[C@@H](N(C)c2ncnc3[nH]ccc23)C1 [Abrocitinib] (10 µM)
inactive: ABL1 = 0 | AKT1 = 0 | ALK 0 | ARAF 0 | AURKA 0 | AURKB 0 | AURKC 0 | BLK 0 | BMX 0 | BRAF 0 | BRAF_V600E 0 | BTK 0 | CAMK2A 0 | CAMK2G 0 | CDK10 = 0 | CDK2 = 0 | CDK3 = 0 | CDK4 = 0 | CDK5 = 0 | CDK6 = 0

O=C1CCC(N2C(=O)c3cccc(OCCCCCOc4ccc(CC(=O)Nc5cc(C6CCC6)[nH]n5)cc4)c3C2=O)C(=O)N1 (stereo not given) [PROTAC CDK9 Degrader-1] (10 µM)
inactive: ABL1 = 0 | AKT1 = 0 | ALK 0 | ARAF 0 | AURKA 0 | AURKB 0 | AURKC 0 | BLK 0 | BMX 0 | BRAF 0 | BRAF_V600E 0 | BTK 0 | CAMK2A 0 | CAMK2G 0 | CDK10 = 0 | CDK2 = 0 | CDK3 = 0 | CDK4 = 0 | CDK5 = 0 | CDK6 = 0

Cc1ccc(Nc2cc(N[C@@H]3CCCC[C@@H]3N)nnc2C(N)=O)nc1C (2 µM)
inactive: ABL1 = 0 | AKT1 = 0 | ALK 0 | ARAF 0 | AURKA 0 | AURKB 0 | AURKC 0 | BLK 0 | BMX 0 | BRAF 0 | BRAF_V600E 0 | BTK 0 | CAMK2A 0 | CAMK2G 0 | CDK10 = 0 | CDK2 = 0 | CDK3 = 0 | CDK4 = 0 | CDK5 = 0 | CDK6 = 0

CC(=O)Nc1nc(C)c(-c2cc(C)c3c(c2)CN([C@@H](C)C2CC2)C3=O)s1 (10 µM)
inactive: ABL1 = 0 | AKT1 = 0 | ALK 0 | ARAF 0 | AURKA 0 | AURKB 0 | AURKC 0 | BLK 0 | BMX 0 | BRAF 0 | BRAF_V600E 0 | BTK 0 | CAMK2A 0 | CAMK2G 0 | CDK10 = 0 | CDK2 = 0 | CDK3 = 0 | CDK4 = 0 | CDK5 = 0 | CDK6 = 0

Nc1ccc(C(=O)Nc2cccc(-c3nc(N4CCOCC4)c4oc5ncccc5c4n3)c2)cn1 (10 µM)
inactive: ABL1 = 0 | AKT1 = 0 | ALK 0 | ARAF 0 | AURKA 0 | AURKB 0 | AURKC 0 | BLK 0 | BMX 0 | BRAF 0 | BRAF_V600E 0 | BTK 0 | CAMK2A 0 | CAMK2G 0 | CDK10 = 0 | CDK2 = 0 | CDK3 = 0 | CDK4 = 0 | CDK5 = 0 | CDK6 = 0

Oc1ccc(-c2cnc3ccc(NCc4ccco4)nn23)cc1 [IRAK inhibitor 2] (2.5 µM)
inactive: ABL1 = 0 | AKT1 = 0 | ALK 0 | ARAF 0 | AURKA 0 | AURKB 0 | AURKC 0 | BLK 0 | BMX 0 | BRAF 0 | BRAF_V600E 0 | BTK 0 | CAMK2A 0 | CAMK2G 0 | CDK10 = 0 | CDK2 = 0 | CDK3 = 0 | CDK4 = 0 | CDK5 = 0 | CDK6 = 0

O=C1Cc2ccccc2N1 [Oxindole] (10 µM)
inactive: ABL1 = 0 | AKT1 = 0 | ALK 0 | ARAF 0 | AURKA 0 | AURKB 0 | AURKC 0 | BLK 0 | BMX 0 | BRAF 0 | BRAF_V600E 0 | BTK 0 | CAMK2A 0 | CAMK2G 0 | CDK10 = 0 | CDK2 = 0 | CDK3 = 0 | CDK4 = 0 | CDK5 = 0 | CDK6 = 0

CN1CCN(c2ccc(-c3ccncc3-c3cc(F)c(O)c(F)c3)cc2)CC1 (10 µM)
inactive: ABL1 = 0 | AKT1 = 0 | ALK 0 | ARAF 0 | AURKA 0 | AURKB 0 | AURKC 0 | BLK 0 | BMX 0 | BRAF 0 | BRAF_V600E 0 | BTK 0 | CAMK2A 0 | CAMK2G 0 | CDK10 = 0 | CDK2 = 0 | CDK3 = 0 | CDK4 = 0 | CDK5 = 0 | CDK6 = 0

S=C(NCc1ccc2c(c1)OCO2)N1CCN(c2ncnc3c2oc2ccccc23)CC1 [Amuvatinib] (2.5 µM)
inactive: ABL1 = 0 | AKT1 = 0 | ALK 0 | ARAF 0 | AURKA 0 | AURKB 0 | AURKC 0 | BLK 0 | BMX 0 | BRAF 0 | BRAF_V600E 0 | BTK 0 | CAMK2A 0 | CAMK2G 0 | CDK10 = 0 | CDK2 = 0 | CDK3 = 0 | CDK4 = 0 | CDK5 = 0 | CDK6 = 0

Cc1cnc(Nc2ccc(F)cc2Cl)nc1-c1c[nH]c(C(=O)N[C@H](CO)c2cccc(Cl)c2)c1 (10 µM)
inactive: ABL1 = 0 | AKT1 = 0 | ALK 0 | ARAF 0 | AURKA 0 | AURKB 0 | AURKC 0 | BLK 0 | BMX 0 | BRAF 0 | BRAF_V600E 0 | BTK 0 | CAMK2A 0 | CAMK2G 0 | CDK10 = 0 | CDK2 = 0 | CDK3 = 0 | CDK4 = 0 | CDK5 = 0 | CDK6 = 0

COc1cc2nccc(Nc3cccc(Oc4ccccc4)c3)c2cc1OC (2.5 µM)
inactive: ABL1 = 0 | AKT1 = 0 | ALK 0 | ARAF 0 | AURKA 0 | AURKB 0 | AURKC 0 | BLK 0 | BMX 0 | BRAF 0 | BRAF_V600E 0 | BTK 0 | CAMK2A 0 | CAMK2G 0 | CDK10 = 0 | CDK2 = 0 | CDK3 = 0 | CDK4 = 0 | CDK5 = 0 | CDK6 = 0

CCCCC(=O)OCC(=O)[C@]1(O)Cc2c(O)c3c(c(O)c2[C@@H](O[C@H]2C[C@H](NC(=O)C(F)(F)F)[C@H](O)[C@H](C)O2)C1)C(=O)c1c(OC)cccc1C3=O [Valrubicin] (10 µM)
inactive: ABL1 = 0 | AKT1 = 0 | ALK 0 | ARAF 0 | AURKA 0 | AURKB 0 | AURKC 0 | BLK 0 | BMX 0 | BRAF 0 | BRAF_V600E 0 | BTK 0 | CAMK2A 0 | CAMK2G 0 | CDK10 = 0 | CDK2 = 0 | CDK3 = 0 | CDK4 = 0 | CDK5 = 0 | CDK6 = 0
